From patent US20210395210A1, “INHIBITION OF BACTERIAL CHAPERONIN SYSTEMS” (THE TRUSTEES OF INDIANA UNIVERSITY, priority 2018, published 2021)
Some results were stated once for a whole list of compounds, not compound by compound.

By UniProt entry, the sequences of proteins in these tests, tags left out. Residues count along the entry.
UniProt P0A6F5, 2-548: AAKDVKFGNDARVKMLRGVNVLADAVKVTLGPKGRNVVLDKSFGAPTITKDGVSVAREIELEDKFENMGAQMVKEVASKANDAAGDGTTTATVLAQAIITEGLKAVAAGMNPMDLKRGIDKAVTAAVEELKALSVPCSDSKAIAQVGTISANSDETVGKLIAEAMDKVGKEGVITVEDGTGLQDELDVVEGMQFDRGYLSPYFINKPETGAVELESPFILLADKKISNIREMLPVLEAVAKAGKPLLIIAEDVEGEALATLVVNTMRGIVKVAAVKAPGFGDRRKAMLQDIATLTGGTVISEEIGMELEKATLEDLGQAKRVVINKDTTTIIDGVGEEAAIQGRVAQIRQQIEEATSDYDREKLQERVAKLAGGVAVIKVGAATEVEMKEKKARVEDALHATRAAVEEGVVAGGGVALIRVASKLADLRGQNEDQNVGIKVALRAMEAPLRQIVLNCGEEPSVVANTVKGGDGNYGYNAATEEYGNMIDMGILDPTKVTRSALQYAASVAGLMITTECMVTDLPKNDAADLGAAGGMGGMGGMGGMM

How the values were obtained:
[1] = target: T1, E. coli GroEL/ES (Escherichia coli, UniProt P0A6F5); test: GroEL/ES-mediated dRho refolding assay; assay type: biochemical; details: log of IC50 (μM scale), with standard deviation
T1 construct: made in house; host or cells: GroEL in E. coli DH5α; GroES in E. coli BL21 (DE3)
Method: Reagent preparation: For this assay, five primary reagent stocks were prepared: 1) GroEUES-dRho binary complex stock; 2) ATP initiation stock; 3) thiocyanate enzymatic assay stock; 4) formaldehyde quench stock; 5) ferric nitrate reporter stock. Denatured rhodanese (dRho) was prepared by 3-fold dilution of rhodanese (Roche product #R1756, diluted to 10 mg/mL with H2O) with denaturant buffer (12 M Urea, 50 mM Tris-HCl, pH 7.4, and 10 mM DTT). Rhodanese was completely denatured by incubating at room temperature for 45 min. The binary complex solution was prepared by slowly adding the dRho stock to a stirring stock of concentrated GroEL in modified folding buffer (50 mM Tris-HCl, pH 7.4, 50 mM KCl, 10 mM MgCl2, 5 mM Na2S2O3, and 1 mM DTT). The solution was centrifuged at 16,000×g for 5 minutes, and the supernatant was collected and added to a solution of GroES in modified folding buffer to give final protein concentrations of 100 nM GroEL, 120 nM GroES, and 80 nM dRho. The binary complex stock was prepared immediately prior to use. For the ATP initiation stock, ATP solid was diluted into modified folding buffer to a final concentration of 2.0 mM. The thiocyanate enzymatic assay stock was prepared to contain 70 mM KH2PO4, 80 mM KCN, and 80 mM Na2S2O3 in water. The formaldehyde quench solution contained 30% formaldehyde in water. The ferric nitrate reporter stock contained 8.5% w/v Fe(NO3)3 and 11.3% v/v HNO3 in water.
Assay Protocol: First, 10 μL aliquots of the GroEL/ES-dRho complex stock were dispensed into clear, 384-well polystyrene plates. […] The chaperonin-mediated refolding cycle was initiated by addition of 10 μL of ATP stock (reagent concentrations during refolding cycle: 50 nM GroEL, 60 nM GroES, 40 nM dRho, 1 mM ATP, and compounds of 250 μM to 114 nM, 3-fold dilution series). After incubating for 45 minutes at 37° C. for the refolding cycle, 30 μL of the thiocyanate enzymatic assay stock was added and incubated for 60 min at R.T. for the refolded rhodenase enzymatic reporter reaction. The reporter reaction was quenched by adding 10 μL of the formaldehyde quench stock, and then 40 μL of the ferric nitrate reporter stock was added to quantify the amount of thiocyanate produced during the enzymatic reporter reaction, which is proportional to the amount of dRho refolded by GroEL/ES. After incubating at R.T. for 15 min, the absorbance by Fe(SCN)3 was measured at 460 nm using a Molecular Devices SpectraMax Plus384 microplate reader. A second set of baseline control plates were prepared analogously, but without GroEL/ES-dRho protein binary solution, to correct for possible interference from compound absorbance or turbidity. […] Results presented represent the averages of IC50 values obtained from at least quadriplicate (duplicate of duplicate) replicates.
(§1) After generating the compound library, we next employed a series of well-established biochemical assays to evaluate compound inhibitory effects against the GroEUES chaperonin system (See FIG. 6 and FIG. 7). We used E. coli GroEUES as the surrogate chaperonin system for refolding of the reporter enzymes malate dehydrogenase (MDH) and rhodanese (Rho). Briefly, binary complexes are formed between GroEL and denatured MDH or Rho, which are then refolded to their native states upon addition of ATP and the GroES co-chaperonin. Enzymatic activities of refolded native MDH or Rho act as coupled reporters of GroEUES refolding functions since in the presence of chaperonin inhibitors, no functional reporter enzymes are generated.

[2] = target: T1, E. coli GroEL/ES; test: GroEL/ES-mediated dMDH refolding assay; assay type: biochemical; details: log of IC50 (μM scale), with standard deviation
Method: Reagent preparation: For these assays, four primary reagent stocks were prepared: 1) GroEUES-dMDH or HSP60/10-dMDH binary complex stock; 2) ATP initiation stock; 3) EDTA quench stock; 4) MDH enzymatic assay stock. Denatured MDH (dMDH) was prepared by 2-fold dilution of MDH (5 mg/ml, soluble pig heart MDH from Roche, product #10127248001) with denaturant buffer (7 M guanidine-HCl, 200 mM Tris, pH 7.4, and 50 mM DTT). MDH was completely denatured by incubating at room temperature for 45 min. The binary complex solutions were prepared by slowly adding the dMDH stock to a stirring stock with GroEL (or HSP60) in folding buffer (50 mM Tris-HCl, pH 7.4, 50 mM KCl, 10 mM MgCl2, and 1 mM DTT), followed by addition of GroES (or HSP10). The binary complex stocks were prepared immediately prior to dispensing into the assay plates and had final protein concentrations of 83.3 nM GroEL (Mr 800 kDa) or HSP60 (Mr 400 kDa), 100 nM GroES or HSP10 (Mr 70 kDa), and 20 nM dMDH in folding buffer. For the ATP initiation stock, ATP solid was diluted into folding buffer to a final concentration of 2.5 mM. Quench solution contained 600 mM EDTA (pH 8.0). The MDH enzymatic assay stock consisted of 20 mM sodium mesoxalate and 2.4 mM NADH in reaction buffer (50 mM Tris-HCl, pH 7.4, 50 mM KCl, and 1 mM DTT).
Assay Protocol: First, 30 μL aliquots of the GroEL/ES-dMDH or HSP60/10-dMDH binary complex stocks were dispensed into clear, 384-well polystyrene plates. […] The chaperonin-mediated refolding cycles were initiated by addition of 20 μL of ATP stock (reagent concentrations during refolding cycle: 50 nM GroEL or HSP60, 60 nM GroES or HSP10, 12 nM dMDH, 1 mM ATP, and compounds of 100 μM to 46 nM, 3-fold dilution series). The refolding reactions were incubated at 37° C. […] Next, the assay was quenched by addition of 10 μL of the EDTA to final concentration of 100 mM. […] A340 nm measurements were recorded at 0.5 minutes (start point) and at successive time points until the amount of NADH consumed reached ˜90% (end point, generally between 20-35 minutes). The differences between the start and end point A340 values were used to calculate the % inhibition of the GroEL/ES or HSP60/10 machinery by the compounds. […] Results presented represent the averages of IC50 values obtained from at least quadriplicate (duplicate of duplicate) replicates.
as §1

Row | Structure (SMILES) | log(IC50) GroEL/ES-dRho Refolding [1] | log(IC50) GroEL/ES-dMDH Refolding [2]
1 | O=C(Nc1ccc(Sc2nc3ccccc3s2)c(Cl)c1)c1cc(Br)cc(Br)c1 [Compound 17, N-(4-(Benzo[d]thiazol-2-ylthio)-3-chlorophenyl)-3,5-dibromobenzamide] | >2 >2 >2 >2 >2 >2 | >2 >2 >2 >2 >2 >2
2 | O=C(Nc1ccc(Sc2nc3ccccc3s2)c(Cl)c1)c1cccc(Br)c1 [Compound 18, N-(4-(Benzo[d]thiazol-2-ylthio)-3-chlorophenyl)-3-bromobenzamide] | >2 >2 >2 >2 >2 >2 | >2 >2 >2 >2 >2 >2
3 | O=C(Nc1ccc(Sc2nc3ccccc3s2)c(Cl)c1)c1ccccc1 [Compound 19, N-(4-(Benzo[d]thiazol-2-ylthio)-3-chlorophenyl)benzamide] | >2 >2 >2 >2 >2 >2 | >2 >2 >2 >2 >2 >2
4 | O=C(Nc1ccc(Sc2nc3ccccc3s2)cc1)c1cc(Br)cc(Br)c1 [Compound 20, N-(4-(Benzo[d]thiazol-2-ylthio)phenyl)-3,5-dibromobenzamide] | >2 >2 >2 >2 >2 >2 | >2 >2 >2 >2 >2 >2
5 | O=C(Nc1ccc(Sc2nc3ccccc3s2)cc1)c1cccc(Br)c1 [Compound 21, N-(4-(Benzo[d]thiazol-2-ylthio)phenyl)-3-bromobenzamide] | >2 >2 >2 >2 >2 >2 | >2 >2 >2 >2 >2 >2
6 | O=C(Nc1ccc(Sc2nc3ccccc3s2)cc1)c1ccccc1 [Compound 22, N-(4-(Benzo[d]thiazol-2-ylthio)phenyl)benzamide] | >2 >2 >2 >2 >2 >2 | >2 >2 >2 >2 >2 >2
7 | COc1c(Br)cc(Br)cc1C(=O)Nc1ccc(Sc2nc3ccccc3s2)c(Cl)c1 [Compound 29, N-(4-(Benzo[d]thiazol-2-ylthio)-3-chlorophenyl)-3,5-dibromo-2-methoxybenzamide] | >2 >2 >2 >2 >2 >2 >2 >2 | >2 >2 >2 >2 >2 >2 >2 >2
8 | COc1c(Br)cccc1C(=O)Nc1ccc(Sc2nc3ccccc3s2)c(Cl)c1 [Compound 30, N-(4-(Benzo[d]thiazol-2-ylthio)-3-chlorophenyl)-3-bromo-2-methoxybenzamide] | >2 >2 >2 >2 >2 >2 >2 >2 | >2 >2 >2 >2 >2 >2 >2 >2
9 | COc1ccc(Br)cc1C(=O)Nc1ccc(Sc2nc3ccccc3s2)c(Cl)c1 [Compound 31, N-(4-(Benzo[d]thiazol-2-ylthio)-3-chlorophenyl)-5-bromo-2-methoxybenzamide] | >2 >2 >2 >2 >2 >2 >2 >2 | >2 >2 >2 >2 >2 >2 >2 >2
10 | COc1ccccc1C(=O)Nc1ccc(Sc2nc3ccccc3s2)c(Cl)c1 [Compound 32, N-(4-(Benzo[d]thiazol-2-ylthio)-3-chlorophenyl)-2-methoxybenzamide] | >2 >2 >2 >2 >2 >2 >2 >2 | >2 >2 >2 >2 >2 >2 >2 >2
11 | COc1c(Br)cc(Br)cc1C(=O)Nc1ccc(Sc2nc3ccccc3s2)cc1 [Compound 33, N-(4-(Benzo[d]thiazol-2-ylthio)phenyl)-3,5-dibromo-2-methoxybenzamide] | >2 >2 >2 >2 >2 >2 >2 >2 | >2 >2 >2 >2 >2 >2 >2 >2
12 | COc1ccc(Br)cc1C(=O)Nc1ccc(Sc2nc3ccccc3s2)cc1 [Compound 35, N-(4-(Benzo[d]thiazol-2-ylthio)phenyl)-5-bromo-2-methoxybenzamide] | >2 >2 >2 >2 >2 >2 >2 >2 | >2 >2 >2 >2 >2 >2 >2 >2
13 | COc1ccccc1C(=O)Nc1ccc(Sc2nc3ccccc3s2)cc1 [Compound 36, N-(4-(Benzo[d]thiazol-2-ylthio)phenyl)-2-methoxybenzamide] | >2 >2 >2 >2 >2 >2 >2 >2 | >2 >2 >2 >2 >2 >2 >2 >2
